Data: US20210017265A1 (RIKEN, published 2021)
Results are given in words; binding and its absence hold for the method and conditions named. Some results given as binding are weak or reduced against the parent protein; the word gives no strength.

Protein sequences, listed by entry. Tags and fused reporters are not part of them. Lines headed by an entry give the natural chain unless they say otherwise; changes in a name come on top.
UniProt P01137: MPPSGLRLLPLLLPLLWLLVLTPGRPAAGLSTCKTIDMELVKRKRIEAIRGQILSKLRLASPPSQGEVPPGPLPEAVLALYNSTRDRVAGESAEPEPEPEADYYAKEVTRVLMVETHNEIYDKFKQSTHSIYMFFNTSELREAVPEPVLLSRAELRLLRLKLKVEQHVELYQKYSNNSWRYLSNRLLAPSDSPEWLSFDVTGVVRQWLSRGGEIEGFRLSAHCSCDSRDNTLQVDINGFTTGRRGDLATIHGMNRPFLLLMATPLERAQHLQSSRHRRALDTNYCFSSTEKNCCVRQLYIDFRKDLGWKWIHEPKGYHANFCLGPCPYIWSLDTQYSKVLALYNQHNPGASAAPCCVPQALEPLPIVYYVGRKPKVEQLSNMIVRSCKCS

Assays:
[1] = biological target: TGF-β1-LAP (C33S/N176Q) (amino acid residues at position-30 to position-390) (human) (UniProt P01137); assay: X-ray crystal structure (Reference Example)
[2] = biological target: TGF-β1-LAP (C33S/N176Q) (amino acid residues at position-30 to position-390) (human) (UniProt P01137); assay: complex formation, gel filtration
[3] = biological target: TGF-β1-LAP (C33S/N176Q) (amino acid residues at position-30 to position-390) (human) (UniProt P01137); assay: X-ray crystal structure, 2.93 Å
[4] = biological target: TGF-β1-LAP (amino acid residues at position-30 to position-390) with mutation R278A (human) (UniProt P01137); assay: hybridoma screening ELISA

| binding [1] | binding [2] | binding [3] | binding [4] | Binder |
| --- | --- | --- | --- | --- |
| binds | binds | binds |  | A2D109 antibody Fv fragment (protein) VH: EVQLQQSGAELVRPGASVKLSCKASGYTFTSYWMNWVKQRPGQGLEWIGMIDPSDSETHYNQMFKDKATLTVDKSSSTAYMQLSSLTSEDSAVYYCVNWPYALDYWGQGTSVTVSS VL: QIVLTQSPAIMSASPGEKVTMTCSASSSVSYMHWFQQKPGTSPKLWIYSTSNLASGVPARFSGSGSGTSYSLTISRMEAEDAATYYCQQRSSYPFTFGSGTKLEIKRA |
|  |  |  | binds | anti-LAP-D antibody (A10) (antibody, mouse IgG1, kappa, V domains shown, Biotin-labelled when used as ELISA detection antibody; immobilised on a CM5 chip in SPR; also called isolated monoclonal antibody of the present embodiment) VH: QVQLQQPGAELVRPGASVKLSCKTSGYSFTRFWMNWVRQRPGQGLEWIGMIHSSDSITRLNQKFKDKATLTLDYSSSTAYMQLSSPTSEDSAVYYCARGYDEYSAMDYWGQGTSVPVSS VL: DIQMTQSPSSLSASLGERVSLTCRASHEISGYLGWLQRQPDGTIKRLIYAASTLDSGVPKRFSGSRSGSDYSLTISSLESEDFADYYCLQYASYPFTFGSGTKLEVKR |
